The source of these data is PubChem BioAssay AID330 (DTP/NCI, 2004).

The subject of the test is P388 leukemia ip, CD2F1 mice, survival T/C. The test is described as follows: NCI In Vivo Anticancer Drug Screen. Data for tumor model P388 Leukemia (intraperitoneal) in CD2F1 (CDF1) mice. The following applies: T/C endpoint: median survival time, higher T/C = longer survival.
Where [1] appears, read: dose: 12.5 mg/kg/injection, schedule: Q01DX009 (ip), vehicle: saline.
The mark [2] stands for this setting: dose: 25.0 mg/kg/injection, schedule: Q01DX009 (ip), vehicle: saline.
Where [3] appears, read: dose: 50.0 mg/kg/injection, schedule: Q01DX009 (ip), vehicle: Klucel (hydroxypropylcellulose) (HPC).
Where [4] appears, read: dose: 50.0 mg/kg/injection, schedule: Q01DX009 (ip), vehicle: saline.
Setting [5] is: dose: 100.0 mg/kg/injection, schedule: Q01DX009 (ip), vehicle: saline.
The mark [6] stands for this setting: dose: 200.0 mg/kg/injection, schedule: Q01DX009 (ip), vehicle: saline.
The mark [7] stands for this setting: dose: 12.5 mg/kg/injection, schedule: Q01DX009 (ip), vehicle: saline with Tween-80.
Setting [8] is: dose: 25.0 mg/kg/injection, schedule: Q01DX009 (ip), vehicle: saline with Tween-80.
[9] abbreviates: dose: 50.0 mg/kg/injection, schedule: Q01DX009 (ip), vehicle: saline with Tween-80.

Each structure is given as a SMILES string. The list does not hold the whole screen: it gathers some chemical classes. Other doses and runs of a compound may be missing. T/C is the treated group as % of the vehicle group. Some doses have a count of surviving animals in place of a T/C: the source files T/C as zero there, which appears to mark a toxic dose or a test without result, not a measured value. Some survivor counts are full or nearly so, which does not show that the dose was tolerated: the source hardly ever lists a survival T/C far under the control, and the zero likely stands for such cases as well. Survivors were counted at the toxicity check, usually on the fifth day, unless a day is given; later deaths do not show. Schedule codes are those of the source, taken here to give the interval after Q, in days (D) or hours (H), and the number of doses after X. Some doses were run more than once; the results are listed from low to high. For survival time, the PubChem record calls one and a half times the control and up active, and a quarter to a half above the control has no call in these data; cut-offs in other NCI protocols can differ. Some T/C values are followed by the survivors on the day toxicity was checked, most often the fifth; where neither a count nor a note follows, no animal had died by that day. Some T/C values are marked as having no survivor count here; that says nothing about deaths at the dose.

In the case of `Nc1cc([As]=O)ccc1O` (stereo not drawn), the T/C is, setting by setting: under setting [1], 126 % of control; (dose: 14.7 mg/kg/injection, schedule: Q01DX009 (ip), vehicle: Klucel (hydroxypropylcellulose) (HPC)) 106 % of control; (dose: 14.8 mg/kg/injection, schedule: Q01DX009 (ip), vehicle: saline) 136 % of control; (dose: 22.0 mg/kg/injection, schedule: Q01DX009 (ip), vehicle: Klucel (hydroxypropylcellulose) (HPC)) 116 % of control; (dose: 22.0 mg/kg/injection, schedule: Q01DX009 (ip), vehicle: saline) 145 % of control; under setting [2], 141 % of control. The T/C runs as follows: (dose: 33.0 mg/kg/injection, schedule: Q01DX009 (ip), vehicle: Klucel (hydroxypropylcellulose) (HPC)) 119 % of control; (dose: 33.0 mg/kg/injection, schedule: Q01DX009 (ip), vehicle: saline) 148 % of control; under setting [3], 132 % of control; under setting [4], 93 [5 of 6 alive] and 150 % of control [8 of 10 alive]. Also, the survivor count runs as follows: (dose: 75.0 mg/kg/injection, schedule: Q01DX009 (ip), vehicle: Klucel (hydroxypropylcellulose) (HPC)) 0 of 6; (dose: 75.0 mg/kg/injection, schedule: Q01DX009 (ip), vehicle: saline) 0 of 10 and 0 of 6.

Turning to `C[As+](C)(C)CCO`, the T/C under setting [4] is 92 % of control, the T/C under setting [5] is 106 % of control and the T/C under setting [6] was 98 % of control [5 of 6 alive].

`CC(C)c1nc([N+](=O)[O-])cn1P(=O)(Oc1ccccc1)OC1CC(C)(C)N(O)C(C)(C)C1` (stereo not drawn): the T/C reads like this: (dose: 25.0 mg/kg/injection, schedule: Q01DX009 (ip), vehicle: saline + alcohol) 100 % of control; (dose: 50.0 mg/kg/injection, schedule: Q01DX009 (ip), vehicle: saline + alcohol) 100 % of control; (dose: 100.0 mg/kg/injection, schedule: Q01DX009 (ip), vehicle: saline + alcohol) 105 % of control.

Regarding `[N-]=[N+]=NC(=O)CCCCC(=O)N=[N+]=[N-]`, the T/C is 109 % of control [5 of 6 alive] under setting [3] and 89 % of control (dose: 100.0 mg/kg/injection, schedule: Q01DX009 (ip), vehicle: Klucel (hydroxypropylcellulose) (HPC)). The survivor count (dose: 200.0 mg/kg/injection, schedule: Q01DX009 (ip), vehicle: Klucel (hydroxypropylcellulose) (HPC)) was 4 of 6.

`O=[N+]([O-])C1(Br)CCC(Br)([N+](=O)[O-])CC1` (stereo not drawn): the T/C is, setting by setting: (dose: 50.0 mg/kg/injection, schedule: Q01DX001 (ip), vehicle: Klucel (hydroxypropylcellulose) (HPC)) 109 % of control; (dose: 100.0 mg/kg/injection, schedule: Q01DX001 (ip), vehicle: Klucel (hydroxypropylcellulose) (HPC)) 104 and 108 % of control; (dose: 200.0 mg/kg/injection, schedule: Q01DX001 (ip), vehicle: Klucel (hydroxypropylcellulose) (HPC)) 100 and 108 % of control; (dose: 400.0 mg/kg/injection, schedule: Q01DX001 (ip), vehicle: Klucel (hydroxypropylcellulose) (HPC)) 107 % of control.

In the case of `CP(=O)(O)O.[Zr]`, the T/C is, setting by setting: (dose: 100.0 mg/kg/injection, schedule: Q04DX003 (ip), vehicle: Klucel (hydroxypropylcellulose) (HPC)) 102 % of control [survivor count not shown]; (dose: 200.0 mg/kg/injection, schedule: Q04DX003 (ip), vehicle: Klucel (hydroxypropylcellulose) (HPC)) 96 % of control [survivor count not shown]; (dose: 400.0 mg/kg/injection, schedule: Q04DX003 (ip), vehicle: Klucel (hydroxypropylcellulose) (HPC)) 93 % of control [survivor count not shown].

Regarding `CC(Br)CN(CC(C)Br)c1cccc(C(=O)O)c1` (stereo not drawn), the T/C (dose: 1.56 mg/kg/injection, schedule: Q01DX009 (ip), vehicle: saline with Tween-80) is 150 and 170 % of control; the T/C (dose: 3.12 mg/kg/injection, schedule: Q01DX009 (ip), vehicle: saline with Tween-80) is 148 and 158 % of control; the T/C (dose: 6.25 mg/kg/injection, schedule: Q01DX009 (ip), vehicle: saline with Tween-80) was 90 [5 of 6 alive], 166, 169 % of control. In addition, the survivor count under setting [7] is given as 5 of 6; the survivor count under setting [8] is recorded as 1 of 6; the survivor count under setting [9] is listed as 0 of 6; the survivor count (dose: 100.0 mg/kg/injection, schedule: Q01DX009 (ip), vehicle: saline with Tween-80) is listed as 0 of 6; the survivor count (dose: 200.0 mg/kg/injection, schedule: Q01DX009 (ip), vehicle: saline with Tween-80) is given as 0 of 6.

Turning to `ClC1CCC2C=CCC1S2` (stereo not drawn), under “dose: 50.0 mg/kg/injection, schedule: Q01DX009 (ip), vehicle: distilled water + Tween-80”, the T/C was 110 % of control.

As to `N#CSC(Cl)(Cl)C(Cl)Cl`, the T/C is, setting by setting: (dose: 6.25 mg/kg/injection, schedule: Q01DX009 (ip), vehicle: saline) 97 % of control [4 of 6 alive]; under setting [1], 109 % of control; under setting [2], 109 % of control; under setting [6], 90 % of control. Moreover, the survivor count is recorded as 6 of 6 under setting [4] and 6 of 6 under setting [5].

For the compound `CC(=O)C1CCN(C)CC1.O=[N+]([O-])c1cc([N+](=O)[O-])c(O)c([N+](=O)[O-])c1`, the T/C runs as follows: (dose: 30.0 mg/kg/injection, schedule: Q01DX005 (ip), vehicle: Klucel (hydroxypropylcellulose) (HPC)) 101 % of control; (dose: 60.0 mg/kg/injection, schedule: Q01DX005 (ip), vehicle: Klucel (hydroxypropylcellulose) (HPC)) 101 % of control; (dose: 120.0 mg/kg/injection, schedule: Q01DX005 (ip), vehicle: Klucel (hydroxypropylcellulose) (HPC)) 102 % of control. For the same compound, the survivor count (dose: 240.0 mg/kg/injection, schedule: Q01DX005 (ip), vehicle: Klucel (hydroxypropylcellulose) (HPC)) is on record as 4 of 6.

`C=C(C(=O)O)[As](=O)(O)O`: the T/C reads like this: under setting [7], 116 % of control; under setting [8], 114 % of control; under setting [9], 109 % of control [5 of 6 alive].

Take `NC1(C(=O)O)CC2CCCC(C1)N2CCCl` (stereo not drawn): the T/C by setting is: (dose: 100.0 mg/kg/injection, schedule: Q01DX001 (ip), vehicle: saline) 104 % of control; (dose: 200.0 mg/kg/injection, schedule: Q01DX001 (ip), vehicle: saline) 114 % of control. Also, the survivor count (dose: 400.0 mg/kg/injection, schedule: Q01DX001 (ip), vehicle: saline) is given as 1 of 6.
